Laboratory results reported in PubChem BioAssay AID1508610 (The Scripps Research Institute Molecular Screening Center, 2020).
Active and inactive are the calls of the source. No rule for the calls is given here.

Sequences of proteins named here, by UniProt entry; tags and fusion partners are left off. A change or cut given only in a name is not applied to a line headed by its entry.
UniProt Q8TDV0: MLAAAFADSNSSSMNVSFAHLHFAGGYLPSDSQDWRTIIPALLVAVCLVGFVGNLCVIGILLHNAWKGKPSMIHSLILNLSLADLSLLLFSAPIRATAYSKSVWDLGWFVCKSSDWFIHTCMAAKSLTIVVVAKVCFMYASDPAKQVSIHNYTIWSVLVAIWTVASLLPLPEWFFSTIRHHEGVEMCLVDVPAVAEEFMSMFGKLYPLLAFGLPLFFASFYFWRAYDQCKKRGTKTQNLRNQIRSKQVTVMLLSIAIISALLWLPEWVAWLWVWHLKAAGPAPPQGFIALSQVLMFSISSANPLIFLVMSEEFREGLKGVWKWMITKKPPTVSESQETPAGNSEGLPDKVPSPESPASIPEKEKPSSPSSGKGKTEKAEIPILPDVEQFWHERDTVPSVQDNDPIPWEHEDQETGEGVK

Target: G-protein coupled receptor 151 (Homo sapiens) (UniProt Q8TDV0)
Assay: GPR151 activator potency, dose response, cell-based (AID 1508610)
Details: cell-based GPR151 activation reporter

- EC50: inactive: > 39.7 µM
SMILES: O=C(/C=C/c1ccccc1)Nc1ccccc1O
